The text below walks through data of PMC5134261.

Sequences of proteins named here, by UniProt entry; tags and fusion partners are left off. Residues count along the entry.
UniProt P05106, residues 27-788: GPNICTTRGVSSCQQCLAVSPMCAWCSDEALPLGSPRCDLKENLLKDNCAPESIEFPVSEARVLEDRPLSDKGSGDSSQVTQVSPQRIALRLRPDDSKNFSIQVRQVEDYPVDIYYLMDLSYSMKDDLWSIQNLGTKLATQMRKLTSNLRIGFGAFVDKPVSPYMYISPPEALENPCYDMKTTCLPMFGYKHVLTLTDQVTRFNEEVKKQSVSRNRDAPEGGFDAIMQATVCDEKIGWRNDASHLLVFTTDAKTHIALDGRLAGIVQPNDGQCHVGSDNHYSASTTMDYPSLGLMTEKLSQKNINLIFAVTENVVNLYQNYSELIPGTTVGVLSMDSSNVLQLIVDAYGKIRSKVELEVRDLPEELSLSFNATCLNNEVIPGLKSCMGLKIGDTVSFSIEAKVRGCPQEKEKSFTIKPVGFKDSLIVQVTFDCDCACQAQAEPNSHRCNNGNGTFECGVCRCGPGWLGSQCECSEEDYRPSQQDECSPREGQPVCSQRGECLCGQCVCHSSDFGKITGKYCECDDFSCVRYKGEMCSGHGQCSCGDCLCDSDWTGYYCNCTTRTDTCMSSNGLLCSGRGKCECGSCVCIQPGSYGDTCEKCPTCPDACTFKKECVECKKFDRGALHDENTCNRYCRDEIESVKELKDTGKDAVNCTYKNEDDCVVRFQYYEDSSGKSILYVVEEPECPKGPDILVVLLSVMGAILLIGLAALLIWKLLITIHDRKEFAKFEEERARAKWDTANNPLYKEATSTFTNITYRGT

Results are given in words; binding and its absence hold for the method and conditions named. Binding seen in cells or lysates may run through a third protein. Some binding calls cover weakened binding; strength is not graded here. Where a sequence is shown, tags or fusion partners need not be part of it.

Experiment [1] has as its target T1, His-tag recombinant human kallistatin (human) (UniProt P29622).
T1 sequence: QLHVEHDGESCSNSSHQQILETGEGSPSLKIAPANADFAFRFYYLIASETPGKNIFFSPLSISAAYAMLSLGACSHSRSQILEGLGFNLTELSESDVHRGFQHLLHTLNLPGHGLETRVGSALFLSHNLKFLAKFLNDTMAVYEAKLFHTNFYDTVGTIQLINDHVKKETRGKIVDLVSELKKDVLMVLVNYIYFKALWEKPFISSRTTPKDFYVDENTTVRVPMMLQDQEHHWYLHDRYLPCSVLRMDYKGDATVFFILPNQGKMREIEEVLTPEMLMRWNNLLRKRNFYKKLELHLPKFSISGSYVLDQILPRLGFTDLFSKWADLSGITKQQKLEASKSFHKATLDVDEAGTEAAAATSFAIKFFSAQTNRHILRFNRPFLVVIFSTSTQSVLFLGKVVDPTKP
The experiment can be described thus: co-IP; NCI-H446 cells treated with kallistatin for 8 h; lysates immunoprecipitated with anti-kallistatin antibody and protein A beads, immunoblot for integrin β3; cells without kallistatin as control; only the target purified. Background: A western blot detects proteins with antibodies after separation by electrophoresis.

The target in experiment [2] is T1, His-tag recombinant human kallistatin (human). Briefly: pull-down; His-kallistatin on Ni-NTA affinity beads incubated with Triton X-100-released membrane proteins (10 mg) of NCI-H446 cells, 16 h at 4 °C; washed with PBS, eluted fractions immunoblotted; empty Ni-NTA beads as control; only the target purified.
For experiment [3], the target named is integrin β3 (human (endogenous in NCI-H446)) (UniProt P05106). Briefly: co-IP; NCI-H446 cells treated with kallistatin for 8 h; lysates immunoprecipitated with anti-integrin β3 antibody, immunoblot for kallistatin; cells without kallistatin as control; only the binder purified.

For the molecule “integrin β3 (from UniProt P05106 27-788) (receptor)”, the binding entry in experiment [1] and in experiment [2] was “binds” in each case.

B1: His-tag recombinant human kallistatin (protein, UniProt P29622 21-427)
chain: T1 sequence
With B1, the binding entry in experiment [3] is listed as “binds”.
